Measured values reported in PMC11904033, “Lanatoside C activates the E3 ligase STUB1 to inhibit FOXP3 transcriptional activity and promote antitumor immunity” (EMBO Molecular Medicine, 2025).
These are yes or no findings as the source states them, for the method shown. Binding seen in cells or lysates may run through a third protein. Here binding means that the protein was enriched with, or labelled near, the bait; the list need not be complete.

By UniProt entry, the sequences of proteins in these tests, tags left out. Residues count along the entry.
UniProt Q01196: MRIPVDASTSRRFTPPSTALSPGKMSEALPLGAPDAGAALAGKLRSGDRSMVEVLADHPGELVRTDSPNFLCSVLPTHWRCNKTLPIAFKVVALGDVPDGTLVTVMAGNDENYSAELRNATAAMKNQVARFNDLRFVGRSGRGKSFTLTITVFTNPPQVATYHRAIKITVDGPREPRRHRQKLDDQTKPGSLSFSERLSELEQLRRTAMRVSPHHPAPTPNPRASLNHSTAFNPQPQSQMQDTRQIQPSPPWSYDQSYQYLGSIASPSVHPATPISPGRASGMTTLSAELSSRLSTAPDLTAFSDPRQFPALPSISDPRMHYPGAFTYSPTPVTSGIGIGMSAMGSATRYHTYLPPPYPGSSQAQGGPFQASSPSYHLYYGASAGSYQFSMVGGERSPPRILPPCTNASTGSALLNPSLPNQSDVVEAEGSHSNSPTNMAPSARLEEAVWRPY
UniProt Q9BZS1, residues 1-417: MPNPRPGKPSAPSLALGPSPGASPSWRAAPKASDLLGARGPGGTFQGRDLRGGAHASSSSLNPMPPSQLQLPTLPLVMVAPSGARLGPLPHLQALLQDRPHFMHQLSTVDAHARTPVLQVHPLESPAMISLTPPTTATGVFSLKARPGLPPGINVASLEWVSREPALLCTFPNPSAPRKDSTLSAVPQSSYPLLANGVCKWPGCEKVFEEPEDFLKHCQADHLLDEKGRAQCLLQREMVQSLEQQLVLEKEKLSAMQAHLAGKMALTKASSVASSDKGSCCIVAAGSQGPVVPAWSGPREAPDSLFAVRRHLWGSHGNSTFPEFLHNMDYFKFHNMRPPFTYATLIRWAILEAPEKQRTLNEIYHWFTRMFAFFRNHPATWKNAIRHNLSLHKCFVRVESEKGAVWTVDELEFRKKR
UniProt Q9UNE7: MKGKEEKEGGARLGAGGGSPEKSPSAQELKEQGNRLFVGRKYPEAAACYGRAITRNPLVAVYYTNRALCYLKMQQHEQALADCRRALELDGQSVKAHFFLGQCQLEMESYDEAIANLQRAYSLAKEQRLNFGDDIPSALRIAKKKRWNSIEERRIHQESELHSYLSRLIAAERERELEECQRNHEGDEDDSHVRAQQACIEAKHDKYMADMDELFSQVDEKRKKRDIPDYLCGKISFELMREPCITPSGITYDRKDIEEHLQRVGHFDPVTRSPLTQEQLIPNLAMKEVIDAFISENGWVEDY

Tests used:
[1] = target: RUNX1-Clu-Myc (RUNX1 fused to the C-terminal half of firefly luciferase, Myc) (UniProt Q01196); experiment: affinity purification with mass spectrometry; 293T-RUNX1-Clu-Myc cells pretreated with MG132 (5 uM) for 1 h, then Lac for 6 h; immunoprecipitation with RUNX1 antibody or IgG; three biological replicates
FOXP3-Flag = FOXP3-Flag (UniProt Q9BZS1); experiment: affinity purification with mass spectrometry; precipitate of FOXP3-Flag, DMSO group and Lac group; cells not named

STUB1 (STIP1 homology and U-box-containing protein 1), endogenous (from UniProt Q9UNE7 1-303)
binding [1]: binds

RUNX1 (precipitated by FOXP3-Flag, Dataset EV1) (from UniProt Q01196 1-453)
binding (FOXP3-Flag): binds
